Data as given in PubChem BioAssay AID504764 (Drosophila RNAi Screening Center, 2011)
The screen tested about 22,000 reagents; this is a random part of those with a known target gene and a result. Over the whole deposit, 403 (1.9%) were called active. 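Unnormalised raw counts per well; ratio z-scores behind the hit calls and whether each hit raises or lowers signal are not deposited.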 Reagents against one gene are numbered here. A plus sign joins genes that one reagent is predicted to hit. Not given: the amount of reagent.

Purpose: 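Genes whose knock-down alters Notch-dependent transcription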 (primary screen)
System: Drosophila Kc167 cells
Reagent: long dsRNA against Drosophila genes
Duration: about 5 days (4 days dsRNA, then 24 h after transfection)
Challenge: transfection of constitutively active membrane-tethered Notch lacking the extracellular domain, read 24 h later
Measurement: 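Light from a Notch-responsive E(spl)m3 luciferase reporter under active Notch, with control-promoter and no-Notch reporter wells to normalise; raw counts from paired wells a and b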
Reading the numbers: induced reporter light, run 1, well a and induced reporter light, run 1, well b: higher = more light from the Notch target reporter with active Notch; control promoter light, run 1, well a and control promoter light, run 1, well b: higher = more light from the viral control promoter (cell number, transfection, viability); uninduced reporter light, run 1, well a: higher = more light from the Notch target reporter without active Notch
Active means: 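Hit if the duplicate-averaged log2 ratio of induced to control-promoter light gives a plate-wise z beyond ±2, or induced to uninduced beyond ±1.8; weak-control or discordant-duplicate wells dropped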
Calls: active = modifier hit (raised or lowered Notch signal); inactive = not a hit

CG16762 gave induced reporter light, run 1, well a = 1.05e5; induced reporter light, run 1, well b = 1.06e5; control promoter light, run 1, well a = 1.49e5; control promoter light, run 1, well b = 1.69e5; uninduced reporter light, run 1, well a = 8575; inactive.
Silencing of Pex6 + Hao #1 gave: induced reporter light, run 1, well a = 1.55e5; induced reporter light, run 1, well b = 1.54e5; control promoter light, run 1, well a = 1.39e5; control promoter light, run 1, well b = 1.56e5; uninduced reporter light, run 1, well a = 11260; inactive.
For Pex6 + Hao #2, the entry reads induced reporter light, run 1, well a = 1.77e5; induced reporter light, run 1, well b = 1.53e5; control promoter light, run 1, well a = 2.03e5; control promoter light, run 1, well b = 2.25e5; uninduced reporter light, run 1, well a = 16265; inactive.
Knock-down of c(3)G (crossover suppressor on 3 of Gowen) gave: induced reporter light, run 1, well a = 1.35e5; induced reporter light, run 1, well b = 2.89e5; control promoter light, run 1, well a = 3.45e5; control promoter light, run 1, well b = 4.48e5; uninduced reporter light, run 1, well a = 17045; inactive.
Silencing of Miro (Mitochondrial Rho) resulted in: induced reporter light, run 1, well a = 1.79e5; induced reporter light, run 1, well b = 1.75e5; control promoter light, run 1, well a = 2.15e5; control promoter light, run 1, well b = 2.43e5; uninduced reporter light, run 1, well a = 16085; inactive.
Knock-down of MRP (Multidrug-Resistance like Protein 1) resulted in: induced reporter light, run 1, well a = 2.06e5; induced reporter light, run 1, well b = 2.22e5; control promoter light, run 1, well a = 2.03e5; control promoter light, run 1, well b = 1.97e5; uninduced reporter light, run 1, well a = 19520; inactive.
After knock-down of CAH8 (Carbonic anhydrase 8) the results were induced reporter light, run 1, well a = 1.82e5; induced reporter light, run 1, well b = 1.76e5; control promoter light, run 1, well a = 1.95e5; control promoter light, run 1, well b = 1.99e5; uninduced reporter light, run 1, well a = 11475; inactive.

2 consecutive entries already listed, quoted:
CG16762 — induced reporter light, run 1, well a = 1.05e5; induced reporter light, run 1, well b = 1.06e5; control promoter light, run 1, well a = 1.49e5; control promoter light, run 1, well b = 1.69e5; uninduced reporter light, run 1, well a = 8575; activity call = inactive
Pex6 + Hao #1 — induced reporter light, run 1, well a = 1.55e5; induced reporter light, run 1, well b = 1.54e5; control promoter light, run 1, well a = 1.39e5; control promoter light, run 1, well b = 1.56e5; uninduced reporter light, run 1, well a = 11260; activity call = inactive

Next reagents follow.
Hnf4 (Hepatocyte nuclear factor 4) #1 gave induced reporter light, run 1, well a = 99980; induced reporter light, run 1, well b = 1.22e5; control promoter light, run 1, well a = 1.73e5; control promoter light, run 1, well b = 1.43e5; uninduced reporter light, run 1, well a = 10010; inactive.
Hnf4 (Hepatocyte nuclear factor 4) #2 scored induced reporter light, run 1, well a = 1.75e5; induced reporter light, run 1, well b = 1.61e5; control promoter light, run 1, well a = 2.46e5; control promoter light, run 1, well b = 2.45e5; uninduced reporter light, run 1, well a = 14655; inactive.
For CG10343, the values are induced reporter light, run 1, well a = 69355; induced reporter light, run 1, well b = 47135; control promoter light, run 1, well a = 1.15e5; control promoter light, run 1, well b = 94265; uninduced reporter light, run 1, well a = 5280; inactive.
Knock-down of CG14613 came out at: induced reporter light, run 1, well a = 1.18e5; induced reporter light, run 1, well b = 88520; control promoter light, run 1, well a = 1.07e5; control promoter light, run 1, well b = 45160; uninduced reporter light, run 1, well a = 8505; inactive.
Against CG8773, the values are induced reporter light, run 1, well a = 1.95e5; induced reporter light, run 1, well b = 1.44e5; control promoter light, run 1, well a = 1.70e5; control promoter light, run 1, well b = 1.44e5; uninduced reporter light, run 1, well a = 12700; inactive.
CG13539 scored induced reporter light, run 1, well a = 1.55e5; induced reporter light, run 1, well b = 1.80e5; control promoter light, run 1, well a = 1.85e5; control promoter light, run 1, well b = 1.92e5; uninduced reporter light, run 1, well a = 15465; inactive.
With knock-down of CG10195, the screen gave induced reporter light, run 1, well a = 40955; induced reporter light, run 1, well b = 39710; control promoter light, run 1, well a = 43025; control promoter light, run 1, well b = 68735; uninduced reporter light, run 1, well a = 2055; inactive.
Against CG6066, the values are induced reporter light, run 1, well a = 1.16e5; induced reporter light, run 1, well b = 1.49e5; control promoter light, run 1, well a = 1.87e5; control promoter light, run 1, well b = 1.74e5; uninduced reporter light, run 1, well a = 10728; inactive.
Against XNP, the entry reads induced reporter light, run 1, well a = 2.55e5; induced reporter light, run 1, well b = 2.21e5; control promoter light, run 1, well a = 3.13e5; control promoter light, run 1, well b = 2.86e5; uninduced reporter light, run 1, well a = 15400; inactive.
After knock-down of cactin, the record shows induced reporter light, run 1, well a = 36240; induced reporter light, run 1, well b = 48785; control promoter light, run 1, well a = 41550; control promoter light, run 1, well b = 51795; uninduced reporter light, run 1, well a = 5740; inactive.
Knock-down of Tnpo-SR (Transportin-Serine/Arginine rich) gave: induced reporter light, run 1, well a = 2.12e5; induced reporter light, run 1, well b = 2.29e5; control promoter light, run 1, well a = 1.98e5; control promoter light, run 1, well b = 2.23e5; uninduced reporter light, run 1, well a = 16092; inactive.
